Source: paper PMC10287905, “Proper RPA acetylation promotes accurate DNA replication and repair” (Nucleic Acids Research, 2023)
These are yes or no findings as the source states them, for the method shown. Binding seen in cells or lysates may run through a third protein. Some results given as binding are weak or reduced against the parent protein; the word gives no strength.

Sequences of proteins named here, by UniProt entry; tags and fusion partners are left off. A change or cut given only in a name is not applied to a line headed by its entry. A line that says so, or that is headed by a name, gives the form on record, which may keep a tag or linker.
UniProt P22336: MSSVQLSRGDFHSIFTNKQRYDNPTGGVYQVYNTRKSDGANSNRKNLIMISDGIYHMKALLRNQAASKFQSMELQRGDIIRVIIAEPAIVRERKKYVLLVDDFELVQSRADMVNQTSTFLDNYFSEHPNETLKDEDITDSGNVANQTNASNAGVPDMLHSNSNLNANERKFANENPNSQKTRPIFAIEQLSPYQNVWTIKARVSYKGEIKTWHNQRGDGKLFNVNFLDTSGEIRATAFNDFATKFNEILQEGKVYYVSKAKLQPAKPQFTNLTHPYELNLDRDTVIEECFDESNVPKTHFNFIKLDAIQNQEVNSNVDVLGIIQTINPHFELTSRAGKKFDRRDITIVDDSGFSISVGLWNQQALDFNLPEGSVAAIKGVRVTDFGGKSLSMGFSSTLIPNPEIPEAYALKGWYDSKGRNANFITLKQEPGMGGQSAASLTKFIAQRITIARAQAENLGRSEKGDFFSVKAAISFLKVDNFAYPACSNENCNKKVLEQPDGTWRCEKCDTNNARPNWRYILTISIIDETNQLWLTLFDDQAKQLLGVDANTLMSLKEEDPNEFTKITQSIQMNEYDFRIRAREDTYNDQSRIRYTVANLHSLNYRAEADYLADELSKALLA
Rfa1-4KR-3xFLAG (P22336, form named): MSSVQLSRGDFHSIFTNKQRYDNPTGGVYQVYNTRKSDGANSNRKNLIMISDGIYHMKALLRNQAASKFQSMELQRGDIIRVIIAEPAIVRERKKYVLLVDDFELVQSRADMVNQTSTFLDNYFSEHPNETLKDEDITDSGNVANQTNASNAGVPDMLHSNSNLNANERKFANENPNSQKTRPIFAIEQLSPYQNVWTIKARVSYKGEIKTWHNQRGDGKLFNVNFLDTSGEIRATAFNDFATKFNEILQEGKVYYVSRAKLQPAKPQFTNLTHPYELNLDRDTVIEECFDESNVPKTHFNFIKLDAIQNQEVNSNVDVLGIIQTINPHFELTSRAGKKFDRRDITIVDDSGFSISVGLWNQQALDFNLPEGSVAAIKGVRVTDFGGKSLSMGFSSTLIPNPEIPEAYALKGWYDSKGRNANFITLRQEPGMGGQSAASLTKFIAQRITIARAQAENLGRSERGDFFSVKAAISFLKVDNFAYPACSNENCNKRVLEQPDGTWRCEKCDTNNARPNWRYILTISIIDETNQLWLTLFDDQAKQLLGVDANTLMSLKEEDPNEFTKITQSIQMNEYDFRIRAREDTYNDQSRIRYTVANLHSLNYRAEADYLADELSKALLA
Rfa1-4KQ-3xFLAG (P22336, form named): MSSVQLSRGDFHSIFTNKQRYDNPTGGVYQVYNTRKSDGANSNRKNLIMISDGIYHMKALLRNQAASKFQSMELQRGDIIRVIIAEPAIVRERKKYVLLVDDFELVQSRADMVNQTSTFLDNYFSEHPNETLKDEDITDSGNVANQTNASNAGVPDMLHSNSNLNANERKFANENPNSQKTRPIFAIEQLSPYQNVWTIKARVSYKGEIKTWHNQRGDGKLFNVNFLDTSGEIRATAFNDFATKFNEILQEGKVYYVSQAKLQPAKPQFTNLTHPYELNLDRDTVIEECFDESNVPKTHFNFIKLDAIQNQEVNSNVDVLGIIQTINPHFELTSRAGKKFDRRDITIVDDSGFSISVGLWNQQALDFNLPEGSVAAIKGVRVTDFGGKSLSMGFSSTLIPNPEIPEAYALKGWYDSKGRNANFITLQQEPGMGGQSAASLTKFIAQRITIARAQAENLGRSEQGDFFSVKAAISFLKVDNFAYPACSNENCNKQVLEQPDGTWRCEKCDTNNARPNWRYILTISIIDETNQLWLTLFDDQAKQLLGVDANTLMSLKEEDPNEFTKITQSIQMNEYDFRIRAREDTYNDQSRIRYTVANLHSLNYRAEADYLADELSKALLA
UniProt Q06142: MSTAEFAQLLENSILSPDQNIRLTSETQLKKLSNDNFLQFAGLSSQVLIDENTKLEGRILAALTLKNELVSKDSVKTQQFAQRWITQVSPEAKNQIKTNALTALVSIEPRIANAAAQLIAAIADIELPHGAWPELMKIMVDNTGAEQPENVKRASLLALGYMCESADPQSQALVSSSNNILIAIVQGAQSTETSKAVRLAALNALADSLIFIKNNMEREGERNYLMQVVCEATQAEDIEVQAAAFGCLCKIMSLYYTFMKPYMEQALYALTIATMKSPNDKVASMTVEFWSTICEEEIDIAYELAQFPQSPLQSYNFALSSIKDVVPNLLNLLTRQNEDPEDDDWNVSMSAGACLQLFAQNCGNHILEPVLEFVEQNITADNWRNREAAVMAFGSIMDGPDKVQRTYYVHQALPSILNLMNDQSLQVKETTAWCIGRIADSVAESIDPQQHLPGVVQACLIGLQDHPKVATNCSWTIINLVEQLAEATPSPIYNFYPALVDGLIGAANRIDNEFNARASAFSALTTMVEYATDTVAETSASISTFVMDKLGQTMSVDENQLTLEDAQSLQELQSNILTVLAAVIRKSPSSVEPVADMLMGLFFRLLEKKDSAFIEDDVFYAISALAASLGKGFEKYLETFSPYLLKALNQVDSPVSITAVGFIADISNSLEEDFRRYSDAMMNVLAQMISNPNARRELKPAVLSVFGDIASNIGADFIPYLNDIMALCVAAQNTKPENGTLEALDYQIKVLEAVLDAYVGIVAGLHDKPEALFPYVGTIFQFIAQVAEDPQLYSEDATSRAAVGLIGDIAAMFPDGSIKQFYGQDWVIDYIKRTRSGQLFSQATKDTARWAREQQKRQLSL
UniProt P26754: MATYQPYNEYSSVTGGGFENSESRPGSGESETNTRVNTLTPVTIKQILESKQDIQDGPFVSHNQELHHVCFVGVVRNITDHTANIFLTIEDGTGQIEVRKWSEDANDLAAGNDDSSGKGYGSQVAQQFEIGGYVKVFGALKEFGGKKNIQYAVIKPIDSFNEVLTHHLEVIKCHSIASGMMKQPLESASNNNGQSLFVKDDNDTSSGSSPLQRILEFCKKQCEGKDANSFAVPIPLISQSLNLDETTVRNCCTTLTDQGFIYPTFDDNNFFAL
UniProt P26755: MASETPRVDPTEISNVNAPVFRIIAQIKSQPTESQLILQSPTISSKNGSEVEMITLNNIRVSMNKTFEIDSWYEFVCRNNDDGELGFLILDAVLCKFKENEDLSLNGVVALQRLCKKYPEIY

Legend:
Assay in all cases: co-IP; yeast lysates (cells with or without 0.1% MMS for 1 h), digested with UltraNuclease; anti-FLAG or anti-HA antibody, protein G-sepharose, 4°C; washed with IP lysis buffer supplemented with 140 mM NaCl; Western blot
Rfa1-4KR-3xFLAG (yeast) = Rfa1-4KR-3xFLAG (yeast) (UniProt P22336)
[1] = molecular target: Rfa1-3xFLAG (wild type) (yeast) (UniProt P22336)
Rfa1-4KQ-3xFLAG (yeast) = Rfa1-4KQ-3xFLAG (yeast) (UniProt P22336)
Rtt105-3xHA (yeast) = molecular target: T1, Rtt105-3xHA (yeast) (UniProt P40063)
T1 sequence: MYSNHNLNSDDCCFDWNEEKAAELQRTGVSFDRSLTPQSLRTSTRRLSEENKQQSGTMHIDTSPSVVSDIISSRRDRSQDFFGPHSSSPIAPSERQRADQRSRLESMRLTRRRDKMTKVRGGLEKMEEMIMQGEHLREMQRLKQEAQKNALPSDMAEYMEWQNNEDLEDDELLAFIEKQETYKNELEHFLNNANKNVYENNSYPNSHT

Kap95-3xHA (yeast) = Kap95-3xHA (yeast) (UniProt Q06142)

Substance	binding (Rfa1-4KR-3xFLAG (yeast))	binding [1]	binding (Rfa1-4KQ-3xFLAG (yeast))	binding (Rtt105-3xHA (yeast))	binding (Kap95-3xHA (yeast))
Rfa2 (from UniProt P26754 1-273)	binds	binds	binds		
Rfa1-4KQ-3xFLAG (from UniProt P22336 1-621)				binds	binds
Rfa3 (from UniProt P26755 1-122)	binds	binds	binds		
Rfa1-3xFLAG (wild type) (from UniProt P22336 1-621)				binds	binds
Rfa1-4KR-3xFLAG (from UniProt P22336 1-621)				binds	binds
